In article PMC7819943, “Rice protein-binding microarrays: a tool to detect cis-acting elements near promoter regions in rice” one finds binding signal data, which are given here for 42 sequences.

This is one part of the list.

The target of this experiment is T1, OsSMF1 (Oryza sativa, UniProt Q6ZLB0 1-436).
T1 sequence: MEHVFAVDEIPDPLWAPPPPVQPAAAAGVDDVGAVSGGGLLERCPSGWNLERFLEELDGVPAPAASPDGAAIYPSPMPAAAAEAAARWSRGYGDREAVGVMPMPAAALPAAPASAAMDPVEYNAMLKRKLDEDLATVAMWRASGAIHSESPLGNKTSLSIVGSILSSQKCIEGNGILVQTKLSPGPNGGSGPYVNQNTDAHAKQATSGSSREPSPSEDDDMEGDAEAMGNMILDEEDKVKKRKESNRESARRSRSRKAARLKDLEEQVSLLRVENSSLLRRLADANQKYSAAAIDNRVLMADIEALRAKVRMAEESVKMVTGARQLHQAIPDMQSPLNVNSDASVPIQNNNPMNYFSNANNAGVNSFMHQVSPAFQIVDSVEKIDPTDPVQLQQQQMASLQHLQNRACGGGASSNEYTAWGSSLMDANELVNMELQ
Put plainly: protein-binding microarray (RPBM); PBS, 2% BSA, 51.3 ng/ul salmon testes DNA, 50 uM zinc acetate, 200 nM TF, 25 C, 1 h; high values mean tight binding. Particulars: protein: recombinant; tags: N-terminal polyhistidine and DsRed monomer fusion (pET32a); chain copies: 2; label: CyDye5-dUTP incorporated in the synthesized complementary strand; 3' TTTTT single-stranded linker to array surface; dsDNA, one strand shown. In a few lines:
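A custom Agilent array was converted to double-stranded form by primer extension with Cy5-dUTP and blocked with 2% BSA. Protein at 200 nM in PBS with 2% BSA, salmon testes DNA and 50 µM zinc acetate was applied for 1 h at 25 °C, followed by washing. The proteins were polyhistidine–DsRed N-terminal fusions of transcription factors, expressed in E. coli BL21-CodonPlus and Ni–NTA-purified. The binding signal is per-feature fluorescence intensity (arbitrary units) from an Axon 4000B scanner.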
Turning to “AAAATTAAAACCGATTCAAACACGGATGACGTACCAAAATCGGAGTCACCTAGTGCAG”, the binding signal was 3260 fluorescence intensity (a.u.).
With “GGGCCCAGCAGGTTCCTAGTAGACTTCGTCGTAGTGGGACCGGAGTCACCTAGTGCAG” the figure was 8310 fluorescence intensity (a.u.); with “CTATTGTATGAATTGGCTATAGATGATTTGGAGGCAGTAGCGGAGTCACCTAGTGCAG”, 3800 fluorescence intensity (a.u.).
As to “TTGCAAACACAGGAATTACCGTTTGATTGAACCACAGGAACGGAGTCACCTAGTGCAG”, the binding signal was 12300 fluorescence intensity (a.u.).
For “GTCACGCACTCACACTCAGCCTCCTCACGTCACGTCTGGCCGGAGTCACCTAGTGCAG” the value was 4090 fluorescence intensity (a.u.); for “CCTTTCTTGGCCGCCACGTGCCACTGTCTCTCCGTCGCCTCGGAGTCACCTAGTGCAG”, 10800 fluorescence intensity (a.u.); for “TAATTAATTGAGTCATGCACATGTCTCTTTAATTTGGCTTCGGAGTCACCTAGTGCAG”, 4910 fluorescence intensity (a.u.).
For “GCTCCGGTTTCCCAAGGGAATGGAAGTTCAGATACAAAGCCGGAGTCACCTAGTGCAG” the value was 18700 fluorescence intensity (a.u.).
With “GAGATCGAACATCGATGCAGCCCCGCGTCAGGTGCCAAGTCGGAGTCACCTAGTGCAG” the figure was 3510 fluorescence intensity (a.u.); with “TCAATGGCTAGCGAATGGCATCTTGATCACAACATACACTCGGAGTCACCTAGTGCAG”, 3630 fluorescence intensity (a.u.); with “GATACTACACGTCTCTGCACACGCGTCAGCAAGCTCCTGTCGGAGTCACCTAGTGCAG”, 5750 fluorescence intensity (a.u.).
On to “GCTGCACGGCCGCGGCGTGGCGCTGACGGCGACGGTGAGGCGGAGTCACCTAGTGCAG”, for which the binding signal was 5740 fluorescence intensity (a.u.).
Regarding “CTAACCCGTCCAGTGAAAGCCCAATCACAGTCATGGGCTGCGGAGTCACCTAGTGCAG”, the binding signal was 3230 fluorescence intensity (a.u.).
For “ACGATGAGAGCCTCCCCGAGCGCGCCCACCTCCCACGGCTCGGAGTCACCTAGTGCAG” the value was 3200 fluorescence intensity (a.u.).
With “ACTCACATATATAAATACACACACTGAGCACCCTCGCAGGCGGAGTCACCTAGTGCAG” the figure was 3420 fluorescence intensity (a.u.); with “CTTTACCTTTCCTGCAAGGTAAACCATCTCGCGTCAGCTTCGGAGTCACCTAGTGCAG”, 4880 fluorescence intensity (a.u.).
With “AACAATTATATTTTATTCTCTTATGTCACGCCTTAAGCTTCGGAGTCACCTAGTGCAG” the figure was 3580 fluorescence intensity (a.u.); with “TCTTGCGGACGGGACACGTACGACGGCAGCCAAGCCAGCCCGGAGTCACCTAGTGCAG”, 5560 fluorescence intensity (a.u.); with “GGCTAAGCCTGATGTTGTTGGAGGATGTGTGATCTGTCATCGGAGTCACCTAGTGCAG”, 4360 fluorescence intensity (a.u.).
Take “AGCAGAGAAAATTAGGCAAGCTCCACGTGTCGGGCTTCCTCGGAGTCACCTAGTGCAG”: the binding signal is 13900 fluorescence intensity (a.u.).
With “GGCCTGGCCCAACCCATCACGGAGACAACAGTCTTCAAATCGGAGTCACCTAGTGCAG” the figure was 28900 fluorescence intensity (a.u.).
For “CGTACAACGGGTGTGTGTTTGGAGCCTGTAGCATGTGGTGCGGAGTCACCTAGTGCAG”, the binding signal is 4250 fluorescence intensity (a.u.).
Regarding “GCCCAGCTTGCGCACGGGGAGGGGAGGGGAGAATGGGCCGCGGAGTCACCTAGTGCAG”, the binding signal was 5540 fluorescence intensity (a.u.).
Regarding “CACTAATGGAGTTGTTAGTGACAGGGCAGCTGCTCCTCTGCGGAGTCACCTAGTGCAG”, the binding signal is 6620 fluorescence intensity (a.u.).
For “CATATGGACCCCACCACTCGCGGACCAACATGTCAGTGATCGGAGTCACCTAGTGCAG” the value was 3370 fluorescence intensity (a.u.); for “TCCCAACTAACACGAGTGGTCACTAGTCAGCACCATGGATCGGAGTCACCTAGTGCAG”, 4570 fluorescence intensity (a.u.); for “AATAACACTATATACGTCACTCTTGGGTGACATGGATGGCCGGAGTCACCTAGTGCAG”, 7270 fluorescence intensity (a.u.).
With “CGAACCTGTCTACATCGCCCGTGTCTTGTGCGTTTGCTCTCGGAGTCACCTAGTGCAG” the figure was 3150 fluorescence intensity (a.u.); with “GAACACAATTACGTTGCAGTATTCCCTTCGTTCTAAAATACGGAGTCACCTAGTGCAG”, 3590 fluorescence intensity (a.u.).
With “CACATAAATAATAATAAAATGTGGGACCCACGTGGGCCCCCGGAGTCACCTAGTGCAG” the figure was 10400 fluorescence intensity (a.u.).
“CTCTTCTCTTCTCTACGTGGAGCTTACAAGTGACAGATACCGGAGTCACCTAGTGCAG”: the binding signal was 3900 fluorescence intensity (a.u.).
With “GCAACGATAATCTCTTCTGGTGACGTGGTCATCAATACCTCGGAGTCACCTAGTGCAG” the figure was 16800 fluorescence intensity (a.u.); with “GTCTACCGGCCTAGGCTGGCTGAGTTGGAAAGAATTCAATCGGAGTCACCTAGTGCAG”, 4320 fluorescence intensity (a.u.).
For “GCGGCGAAGCAGGGAGGAGGGAGGAGGAGGGGCGGCGGTGCGGAGTCACCTAGTGCAG” the value was 5300 fluorescence intensity (a.u.); for “GATATGTACGTCAGCCTCATGTATATCAAAACTACTCAGGCGGAGTCACCTAGTGCAG”, 6580 fluorescence intensity (a.u.).
For “TACTACCACTTGCCCTGACGTACGTACTACACGCGCCCCGCGGAGTCACCTAGTGCAG” the value was 4780 fluorescence intensity (a.u.).
For the sequence “CTTGCGTCCTGTGTTTGAAGAGAAAACAATCACGGACAGGCGGAGTCACCTAGTGCAG”, the binding signal is 4760 fluorescence intensity (a.u.).
With “CGCACGCAGAGACCGGTGGTAGTGTCGTCACACTGCCGTTCGGAGTCACCTAGTGCAG” the figure was 3840 fluorescence intensity (a.u.); with “AATAATCAATAATCGTAAATGCGATAAATAAATTTCATAACGGAGTCACCTAGTGCAG”, 21400 fluorescence intensity (a.u.).
With “TGTCGTCAACATTAGCTAGAAATGGAATAAAGTTATAGTGCGGAGTCACCTAGTGCAG” the figure was 3910 fluorescence intensity (a.u.); with “AACCAGCACGCGATGGGGAGGGGCGAGCAGGAGGCGGCGGCGGAGTCACCTAGTGCAG”, 3320 fluorescence intensity (a.u.).
With “TTTGCGATGCTGACTGGTCTGAGAGCCTTGATCCGATGGTCGGAGTCACCTAGTGCAG” the figure was 44800 fluorescence intensity (a.u.).
